What was measured:
Test in all cases: SPR; geometric mean of post-prime mAbs
[1] = molecular target: post-prime CLK19-lineage mAbs
[2] = molecular target: post-prime CLK21-lineage mAbs
[3] = molecular target: post-prime CLK09-lineage mAbs

B1: eOD-GT8 (monomeric ligand) (other)
chain: DTITLPCRPAPPPHCSSNITGLILTRQGGYSNANTVIFRPSGGDWRDIARCQIAGTVVSTQLFLNGSLAEEEVVIRSEDWRDNAKSICVQLATSVEIACTGAGHCAISRAKWANTLKQIASKLREQYGAKTIIFKPSSGGDPEFVNHSFNCGGEFFYCASTQLFASTWFASTGTGTK
With B1 the Kd [1] was 2 nM, the Kd [2] was 2.8 nM and the Kd [3] was 8.6 nM.

From publication PMC11488661 (2024)
